Results taken from patent US9110076B2, “Method for quantifying modified peptides” (HVIVO SERVICES LIMITED, priority 2009, dated 2015).
At least one compound was matched to its structure with a doubt left.

Tested on: NIH-3T3 fibroblasts
Test: TIQUAS quantification of phosphorylation sites in starved, serum-stimulated cells with or without wortmannin pre-incubation
Type: cell-based, murine
Conditions: XIC m/z 683.26; FIG. 2(C)
Procedure: The novel quantitative techniques of the invention were used to quantify phosphorylation sites in NIH-3T3 fibroblasts, which were starved and then stimulated with serum with or without pre-incubation with the pan-PI3K inhibitor wortmannin (WM). These experiments were performed 4 times. […] Cells were treated as indicated, lysed with a urea-based buffer to obtain nuclear as well as cytosolic proteins and proteins digested. Resultant phosphorylated peptides were enriched by IMAC and TiO2 chromatography and quantified by LC-MS using a computer program developed by the inventors ([…]) (Cutillas and Vanhaesebroeck, Molecular & Cellular Proteomics 6, 1560-1573 (2007)). FIG. 2(B) gives a summary of the data obtained and a snapshot of the data sorted by probability.

COC[C@H]1OC(=O)c2coc3c2[C@@]1(C)C1=C(C3=O)[C@@H]2CCC(=O)[C@@]2(C)C[C@H]1OC(C)=O [WM, wortmannin]
phosphorylation site on PP1 regulatory subunit 11 (CCCIpYEKPR), extracted ion chromatogram: sensitive
